Values quoted from earlier work in patent publication US20220370396A1, “METHODS FOR MODULATING CONDITIONS OF THE EYE USING NOVEL LATANOPROST COMPOUND OPHTHALMIC COMPOSITIONS” (Somerset Therapeutics LLC, priority 2021, published 2022).

conditions: patients starting on monotherapy; cited from earlier work

Structure (SMILES) | Rate of adjunctive medication use [%]
CCNC(=O)CCC/C=C\C[C@@H]1[C@@H](/C=C/[C@@H](O)CCc2ccccc2)[C@H](O)C[C@@H]1O [bimatoprost] | 23.2
CC(C)OC(=O)CCC/C=C\C[C@@H]1[C@@H](CC[C@@H](O)CCc2ccccc2)[C@H](O)C[C@@H]1O [latanoprost, isopropyl (Z)-7[(1R,2R,3R,5S)3,5-dihydroxy-2-[(3R)-3-hydroxy-5-phenylpentyl]cyclopentyl]-5-heptanoate] | 30.2
CC(C)OC(=O)CCC/C=C\C[C@@H]1[C@@H](/C=C/[C@@H](O)COc2cccc(C(F)(F)F)c2)[C@H](O)C[C@@H]1O [travoprost] | 22.5
